# Screen size: about 360,000 compounds; about 7,500 (2.1%) were called active. This list was built around the results that the source calls inconclusive (neither active nor inactive); the mix of calls is not that of the screen. The call rests on the fitted dose curve; in most records, active means well fitted inhibition curve with a large enough effect; inconclusive means small, poorly fitted or top-dose-only effect, or effect the other way; inactive means flat fitted curve, though single readings scatter. Potencies of inconclusive entries are doubtful fits and often do not repeat.
# Experiment: Nrf2 qHTS screen for inhibitors; further: nearly all actives have a fitted effect of over 60% in size
# Conditions: A549 ARE-Fluc reporter, luciferase luminescence, 18-24 h; activity change, negative = inhibition: at 46 µM (top of the series)
# Method in brief: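 Reporter: ARE-Fluc in A549. Exposure: 18-24 h, 37 °C, 5% CO2, 5% FBS OPTI-MEM. Readouts: fluorescent cytotoxicity (CellTiter-Fluor), then luminescent Nrf2 signal after BugLite.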
# On the % scale 0 is the no-effect control and ±100 the full control effect; potency means the concentration at half of the fitted maximal effect.
Compound,Potency,"activity change, negative = inhibition"
O=C(Nc1nnc(SCc2ccc(Cl)cc2)s1)C1CC(=O)N(Cc2ccccc2)C1 (configuration not stated),"inconclusive: 13 µM [falling, partial curve, poor fit]",
CCOC(=O)C1CCN(C(=O)c2nn(-c3ccc(C)cc3)c(=O)c3c2c2ccccc2n3C)CC1,inactive,
COc1ccc(/C=N/NC(=O)c2ccn[nH]2)cc1COc1ccc(Cl)cc1,"inconclusive: 10 µM [falling, partial curve, poor fit]",
CCOc1ccccc1N1CC(c2nc3ccccc3n2CCCOc2ccccc2)CC1=O (configuration not stated),"inconclusive: 29.1 µM [falling, single point]",
S=C(Nc1ccccc1)N1CCC(Cc2ccccc2)CC1,active: 16.4 µM,
C#C[C@]1(O)CCC2C3CCC4=Cc5oncc5CC4(C)C3CCC21C (some centres not stated),"inconclusive: 32.6 µM [falling, single point]",
COc1cc(NC(=O)c2cccc(Cl)c2)c(OC)cc1NC(=O)CN1CCOCC1,"inconclusive: 20.6 µM [falling, partial curve, poor fit]",
Cc1ccccc1Cn1c(=O)n(Cc2ccco2)c(=O)c2oc3ccccc3c21,"inconclusive: 0.326 µM [activator, full curve, poor fit]",
CC(C)Oc1cccc(OCCN2C(=O)c3ccccc3C2=O)c1,"inconclusive: 25.9 µM [activator, partial curve, poor fit]",
CCCCNC(=O)c1cnc2sc(N3CCCCC3)nn2c1=O,"inconclusive: 18.4 µM [activator, single point]",
O=C(c1ccc2c(c1)CCN2S(=O)(=O)c1ccc(Cl)cc1)N1CCN(c2ccccc2F)CC1,"inconclusive: 25.9 µM [falling, single point]",
Cc1ccc(-n2cc3c(-c4cccc(Br)c4)nnc(C)c3n2)cc1,"inconclusive: 29.1 µM [falling, single point]",
CCSc1nnc(Cn2c(=O)sc3ccccc32)n1-c1ccc(OC)cc1,"inconclusive: 1.03 µM [falling, partial curve, poor fit]",
CC(=O)Oc1ccc2ccccc2c1C(NC(=O)C(C)C)c1cccc([N+](=O)[O-])c1 (configuration not stated),"inconclusive: 29.1 µM [falling, single point]",
Cc1cc(=O)oc2cc(OCc3ccc(C(=O)N4CCN(c5ccccc5)CC4)cc3)ccc12,active: 18.4 µM,
Cc1ccc(N=Nc2c(C)[nH]n(C(N)=S)c2=O)cc1,"inconclusive: 2.06 µM [activator, full curve]",
O=C(c1ccccc1Oc1ccccc1)N1CCN(c2ccc(F)cc2)CC1,"inconclusive: 20.6 µM [falling, partial curve, poor fit]",
COc1cccc(NC(c2nnc(-c3ccccc3)o2)c2ccc(F)cc2Cl)c1 (configuration not stated),"inconclusive: 25.9 µM [falling, single point]",
CC(C)=NNc1nc(-c2ccccc2)c(C)s1,"inconclusive: 32.6 µM [activator, single point]",
CCc1ccc(OCC(=O)N/N=C(\C)c2ccccc2OC(F)F)cc1,"inconclusive: 14.6 µM [falling, partial curve]",
CCC(C)OC(=O)C1=C(C)NC2=C(C(=O)C(C(=O)OC)C(C)C2)C1c1ccc(N(C)C)cc1 (configuration not stated),"inconclusive: 9.2 µM [falling, partial curve]",
CC(C)CC(=O)N1CCN(S(=O)(=O)c2ccccc2)CC1,inactive,
COc1ccc(C(C(=O)Nc2ccc(C(C)C)cc2)N(C)C(=O)Cc2cccs2)cc1 (configuration not stated),,inactive: 8.09% [at 9.27 µM]

Compound,Potency,"activity change, negative = inhibition"
C=C(C)COc1ccc2c(C)c(CCC(=O)NC3CC3)c(=O)oc2c1,"inconclusive: 32.6 µM [falling, partial curve, poor fit]",
CC1(C)C2CCC1(CS(=O)(=O)Nc1ccccc1)C(=O)C2 (configuration not stated),inactive,
O=C(C(Cc1ccccc1)N1C(=O)c2ccccc2C1=O)N1c2ccccc2CCc2ccccc21 (configuration not stated),"inconclusive: 25.9 µM [falling, single point]",
CC(Oc1ccc(F)cc1Br)c1nc2ccccc2c(=O)[nH]1 (configuration not stated),"inconclusive: 16.4 µM [activator, single point]",
C=CCSc1nc(C)c(CC(=O)OCCCC)c(=O)[nH]1,"inconclusive: 29.1 µM [activator, single point]",
Cc1cccc(Nc2nc(NCc3ccco3)nc(N3CCOCC3)n2)c1,"inconclusive: 32.6 µM [falling, single point]",
CCN(CC)Cc1oc(CO)cc(=O)c1O,inactive,
COc1cc(C(=O)Nc2scc(-c3ccccc3)c2C(=O)O)cc(OC)c1OC,"inconclusive: 29.1 µM [falling, single point]",
COc1ccc(C2c3ccc(O)cc3Oc3ncn4nc(-c5cccnc5)nc4c32)cc1OC (configuration not stated),"inconclusive: 20.6 µM [activator, partial curve]",
CCC(C)N(C(=O)Cn1nnc2ccccc21)C(C(=O)Nc1ccc(F)cc1)c1cccc(OC)c1 (configuration not stated),"inconclusive: 23.1 µM [falling, single point]",
Nc1c(C(=O)Nc2ccc(Cl)cc2)oc2ccccc12,"inconclusive: 16.4 µM [activator, partial curve]",
CCN1C(=O)/C(=C/N2CCc3ccccc32)SC1=S,"inconclusive: 3.26 µM [activator, full curve]",
CC(C)C(=O)N1CCN(c2ccccc2NC(=O)c2cccc(Cl)c2)CC1,"inconclusive: 5.17 µM [falling, partial curve, poor fit]",
CCOc1ccc(OCC)c(NC(=O)CSc2nc3ccccc3c(=O)n2C)c1,active: 10.3 µM,
CC(=O)c1ccc(NC(=O)C2CCC(C)(C(=O)O)C2(C)C)cc1 (configuration not stated),"inconclusive: 0.058 µM [falling, full curve, poor fit]",
C/C(=N\NC(=O)CNc1cccc2ccccc12)c1ccc(Br)s1,"inconclusive: 29.1 µM [activator, partial curve, poor fit]",
COc1ccc(NC(=S)NC(NC(=O)c2cccc(Cl)c2)C(Cl)(Cl)Cl)c([N+](=O)[O-])c1 (configuration not stated),active: 25.9 µM,
COC(=O)c1ccc(OC(=O)c2ccccn2)cc1,inactive,
COc1ccc(-c2csc(NC(=O)C3CCCCN3S(=O)(=O)c3ccccc3)n2)cc1 (configuration not stated),active: 23.1 µM,
COc1ccc(-c2nc3ncccc3n2O)cc1,inactive,
Cc1c(CCC(=O)NCc2ccc(F)cc2)c(=O)oc2cc(O)ccc12,inactive,
COc1ccc(CCNC(=O)c2ccc3c(Cl)c4c(nc3c2)CCCC4)cc1OC,"inconclusive: 23.1 µM [falling, single point]",
COCCCNC(=O)C1CCCN(c2ncnc3onc(C)c23)C1 (configuration not stated),"inconclusive: 29.1 µM [falling, partial curve, poor fit]",

# 3 consecutive records out of the list so far:
Compound,Potency,"activity change, negative = inhibition"
CC(Oc1ccc(F)cc1Br)c1nc2ccccc2c(=O)[nH]1 (configuration not stated),"inconclusive: 16.4 µM [activator, single point]",
C=CCSc1nc(C)c(CC(=O)OCCCC)c(=O)[nH]1,"inconclusive: 29.1 µM [activator, single point]",
Cc1cccc(Nc2nc(NCc3ccco3)nc(N3CCOCC3)n2)c1,"inconclusive: 32.6 µM [falling, single point]",

# 3 entries already listed, arranged by length of the SMILES, high to low.
Compound,Potency,"activity change, negative = inhibition"
CCC(C)OC(=O)C1=C(C)NC2=C(C(=O)C(C(=O)OC)C(C)C2)C1c1ccc(N(C)C)cc1 (configuration not stated),"inconclusive: 9.2 µM [falling, partial curve]",
CCN1C(=O)/C(=C/N2CCc3ccccc32)SC1=S,"inconclusive: 3.26 µM [activator, full curve]",
S=C(Nc1ccccc1)N1CCC(Cc2ccccc2)CC1,active: 16.4 µM,

# (next part)

Compound,Potency,"activity change, negative = inhibition"
OC(COc1ccc(OCc2ccccc2)cc1)CN1CCCCC1 (configuration not stated),"inconclusive: 13 µM [activator, partial curve]",
COc1cc(-c2nnc3n2N=C(c2ccccc2)CS3)cc(OC)c1OC,"inconclusive: 20.6 µM [falling, single point]",
COc1cccc(C(=O)NCC(=O)N2CCN(c3ccc(C(F)(F)F)cn3)CC2)c1,"inconclusive: 23.1 µM [falling, partial curve]",
Cc1ccc(C(=O)N/N=C\c2cccs2)cn1,"inconclusive: 14.6 µM [activator, partial curve]",
Cc1ccc2oc(C(=O)Nc3nc(-c4ccc(F)cc4)ns3)c(C)c2c1,inactive,
CN1CCN(C(=O)C23CC4CC(CC(C4)C2)C3)CC1,"inconclusive: 8.2 µM [activator, single point]",
O=C(/C=C/c1ccco1)Nc1ccccc1C(=O)O,"inconclusive: 8.2 µM [activator, single point]",
O=C(COC(=O)C12CC3CC(CC(O)(C3)C1)C2)Nc1ccc(OC(F)F)cc1,"inconclusive: 29.1 µM [activator, single point]",
COc1ccc(Cl)cc1NC(=S)NCc1cccs1,"inconclusive: 10.3 µM [falling, partial curve, poor fit]",
CCOc1ccc(N(CC)C(=O)c2noc3c2COc2ccc(C)cc2-3)cc1,"inconclusive: 14.6 µM [activator, partial curve, poor fit]",
O=c1cc(CSc2ccccn2)[nH]c(=O)[nH]1,"inconclusive: 14.6 µM [activator, single point]",
Cn1c(=O)oc2cc(S(=O)(=O)Nc3ccc(F)cc3)ccc21,inactive,
O=[N+]([O-])c1cccc(-c2nc(-c3ccccn3)no2)c1,"inconclusive: 1.84 µM [activator, full curve, poor fit]",
CC(C)N(Cc1nc(-c2ccc(Cl)cc2)no1)C(=O)CN(C)S(=O)(=O)c1ccc(Cl)cc1,"inconclusive: 14.6 µM [falling, partial curve, poor fit]",
CCCCNc1nc2ccccc2nc1NS(=O)(=O)c1ccc(F)cc1,"inconclusive: 29.1 µM [falling, single point]",
CCCCCCCCCCCCCCCC[n+]1cccc2ccccc21,active: 25.9 µM,
O=C1CN(C(=O)CSc2nc(-c3ccc(Cl)cc3)cs2)c2ccccc2N1,active: 23.1 µM,
CCCOc1ccc(C(=O)NNC(=S)NC(C)=O)cc1,"inconclusive: 6.51 µM [falling, full curve, poor fit]",
C=CCC1CCCC(=O)N2CC[C@H](O)C12 (some centres not stated),inactive,
COc1ccccc1NC(=O)c1cnc(SC)nc1,"inconclusive: 11.6 µM [activator, partial curve]",
CCOC(=O)C1CCN(S(=O)(=O)c2c(C)n[nH]c2C)CC1,"inconclusive: 0.731 µM [falling, full curve, poor fit]",

# Reference: PubChem BioAssay AID504444 (National Center for Advancing Translational Sciences (NCATS), 2011)
